Measured values published in paper doi:10.1101/2024.06.03.596644.

Key:
His-FBXO31(S278D) = biological target: T1, His-FBXO31(S278D) (UniProt Q5XUX0); assay: pull-down
T1 sequence: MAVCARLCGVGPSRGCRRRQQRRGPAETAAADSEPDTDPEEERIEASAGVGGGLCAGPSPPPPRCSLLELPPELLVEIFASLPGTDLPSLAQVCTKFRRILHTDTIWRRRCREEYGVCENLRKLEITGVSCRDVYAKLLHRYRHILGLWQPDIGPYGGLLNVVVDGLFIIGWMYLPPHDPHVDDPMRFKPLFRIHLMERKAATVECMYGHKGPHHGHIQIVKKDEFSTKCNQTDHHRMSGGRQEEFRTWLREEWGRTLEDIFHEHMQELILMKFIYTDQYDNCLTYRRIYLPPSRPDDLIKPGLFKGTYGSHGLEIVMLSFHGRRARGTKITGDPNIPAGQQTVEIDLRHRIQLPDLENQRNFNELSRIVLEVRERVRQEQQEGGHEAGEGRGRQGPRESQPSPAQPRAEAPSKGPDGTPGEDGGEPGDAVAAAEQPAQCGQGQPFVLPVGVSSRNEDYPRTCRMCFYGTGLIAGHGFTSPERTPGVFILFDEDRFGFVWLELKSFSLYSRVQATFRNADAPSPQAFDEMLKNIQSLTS

His-WT-FBXO31 = biological target: T2, His-WT-FBXO31 (UniProt Q5XUX0); assay: pull-down
T2 sequence: T1 sequence with D278S

- binding (His-FBXO31(S278D)): binds
- binding (His-WT-FBXO31): binds
Substance: GST-H2AX(S139D)

Changes are numbered by the printed parent chain. Results are given in words; binding and its absence hold for the method and conditions named. A result given as binding can be weak or reduced; the word gives no strength. Sequences can lack the tags named with a protein.
